Screening data, single-dose tests

Chains of the proteins cited; added tags and fusions are not shown.
UniProt P9WPC5, whole entry: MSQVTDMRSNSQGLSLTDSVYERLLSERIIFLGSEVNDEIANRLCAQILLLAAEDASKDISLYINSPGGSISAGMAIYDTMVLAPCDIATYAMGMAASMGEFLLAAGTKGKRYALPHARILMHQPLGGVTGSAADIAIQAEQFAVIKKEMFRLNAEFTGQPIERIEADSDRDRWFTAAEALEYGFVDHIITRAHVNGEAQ
UniProt P9WPC3, whole entry partner: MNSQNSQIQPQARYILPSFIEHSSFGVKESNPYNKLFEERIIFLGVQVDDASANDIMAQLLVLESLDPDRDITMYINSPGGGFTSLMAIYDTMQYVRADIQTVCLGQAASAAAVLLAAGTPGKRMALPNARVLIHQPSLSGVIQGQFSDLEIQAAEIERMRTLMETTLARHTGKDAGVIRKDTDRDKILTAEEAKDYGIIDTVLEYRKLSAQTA
UniProt I6X8D2, whole entry: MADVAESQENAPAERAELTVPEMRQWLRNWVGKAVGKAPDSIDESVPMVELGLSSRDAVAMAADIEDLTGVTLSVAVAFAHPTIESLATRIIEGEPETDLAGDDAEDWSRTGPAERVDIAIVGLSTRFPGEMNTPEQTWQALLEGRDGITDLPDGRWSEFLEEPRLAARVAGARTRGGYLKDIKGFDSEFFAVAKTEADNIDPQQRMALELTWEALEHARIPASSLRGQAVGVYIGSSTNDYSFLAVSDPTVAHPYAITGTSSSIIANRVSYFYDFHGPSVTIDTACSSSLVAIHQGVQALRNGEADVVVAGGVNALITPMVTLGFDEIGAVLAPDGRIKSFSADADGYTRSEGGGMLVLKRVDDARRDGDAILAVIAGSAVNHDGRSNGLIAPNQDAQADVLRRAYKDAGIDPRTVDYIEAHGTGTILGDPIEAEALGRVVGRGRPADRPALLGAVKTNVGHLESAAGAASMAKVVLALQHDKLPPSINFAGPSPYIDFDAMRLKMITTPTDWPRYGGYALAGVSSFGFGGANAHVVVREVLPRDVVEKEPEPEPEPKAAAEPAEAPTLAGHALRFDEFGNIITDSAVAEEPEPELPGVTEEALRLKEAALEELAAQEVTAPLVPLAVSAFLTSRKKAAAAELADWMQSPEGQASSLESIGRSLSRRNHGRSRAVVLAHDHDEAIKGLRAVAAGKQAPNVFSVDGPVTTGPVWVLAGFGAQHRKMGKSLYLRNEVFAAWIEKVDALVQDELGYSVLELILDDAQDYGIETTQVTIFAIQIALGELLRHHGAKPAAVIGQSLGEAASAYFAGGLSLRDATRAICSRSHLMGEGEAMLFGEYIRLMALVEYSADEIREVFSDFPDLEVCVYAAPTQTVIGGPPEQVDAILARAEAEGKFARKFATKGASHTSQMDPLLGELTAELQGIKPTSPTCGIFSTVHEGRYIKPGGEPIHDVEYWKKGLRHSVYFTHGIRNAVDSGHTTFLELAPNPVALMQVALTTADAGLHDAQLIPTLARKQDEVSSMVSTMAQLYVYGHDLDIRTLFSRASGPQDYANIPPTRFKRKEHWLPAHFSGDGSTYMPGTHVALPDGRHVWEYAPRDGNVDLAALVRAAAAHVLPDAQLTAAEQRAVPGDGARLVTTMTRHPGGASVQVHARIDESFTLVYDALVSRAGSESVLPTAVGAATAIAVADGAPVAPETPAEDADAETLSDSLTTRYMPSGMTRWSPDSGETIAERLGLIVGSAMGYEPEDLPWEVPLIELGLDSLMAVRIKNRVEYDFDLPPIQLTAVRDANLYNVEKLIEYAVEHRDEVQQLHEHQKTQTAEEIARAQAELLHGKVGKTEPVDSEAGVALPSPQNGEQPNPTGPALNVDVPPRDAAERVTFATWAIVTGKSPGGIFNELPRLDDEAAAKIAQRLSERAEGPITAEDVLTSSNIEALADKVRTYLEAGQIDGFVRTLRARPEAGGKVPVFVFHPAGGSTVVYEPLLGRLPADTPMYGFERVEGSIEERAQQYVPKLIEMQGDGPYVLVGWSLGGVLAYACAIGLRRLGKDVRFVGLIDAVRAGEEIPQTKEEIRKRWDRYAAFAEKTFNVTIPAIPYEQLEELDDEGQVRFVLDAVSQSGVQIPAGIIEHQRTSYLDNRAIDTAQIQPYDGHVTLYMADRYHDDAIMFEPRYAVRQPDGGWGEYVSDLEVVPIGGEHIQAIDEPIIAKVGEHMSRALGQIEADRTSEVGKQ

Data taken from ChEMBL document CHEMBL3988442, “University of Dundee, Small-Polar-MMV Screening Library” (2021).

ClpP1P2: 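ClpP1P2, Mycobacterium tuberculosis (UniProt P9WPC5 and UniProt P9WPC3). Protease assay of ClpP1P2, read by the AMC dye that it sets free. Concentration: 50 µM. Higher reads as stronger inhibition, judged from the few compounds that gave an IC50. Most other retested compounds had strongly negative values. About 69,000 compounds were tested under these conditions; 0.015% (about 10) showed 50% or more at least once.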
Pks13 thioesterase: 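Polyketide synthase Pks13, Mycobacterium tuberculosis (UniProt I6X8D2). Enzyme assay of the thioesterase domain of polyketide synthase 13; the read-out is not stated. Compounds at 30 µM. Higher reads as stronger inhibition (inferred from which compounds were picked for retests). Of about 67,000 compounds tested this way, about 300 (0.46%) reached 50% or more in at least one test.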

Results are given as percent effect. The controls that fix the scale are not given in the record; negative values are as filed. Compounds were drawn at random from those tested, without regard to their results.

Compound: COc1cc2c(cc1OC)S(=O)(=O)N(Cc1cnn(C)c1)C2=O
ClpP1P2: 0.3683
Pks13 thioesterase: -14.75

Compound: Cc1ccc(NC(=O)N2CCN(C(=O)CC3CCCC3)CC2)s1
ClpP1P2: -14.44
Pks13 thioesterase: -10.51

Compound: CN1CCCN(C(=O)c2cnsn2)c2cc(F)ccc21
ClpP1P2: -2.759
Pks13 thioesterase: -4.853

Compound: Cc1cccc(C(=O)NCc2ccc(CS(N)(=O)=O)cc2)n1
ClpP1P2: -3.523
Pks13 thioesterase: -3.352

Compound: CC(C)Cc1cc(NC(=O)c2ccc[nH]2)n(C)n1
ClpP1P2: 7.763
Pks13 thioesterase: -14.75

Compound: Clc1ccc(OCCN2CCN(CCn3cncn3)CC2)cc1
ClpP1P2: -20.61
Pks13 thioesterase: -26.02

Compound: NC(=O)Cn1ccc(NC(=O)C2(c3ccc(F)cc3)CC2)n1
ClpP1P2: -4.655
Pks13 thioesterase: -16.24

Compound: COCCN(C)c1nc(-c2ccncc2)nc2c1CCN(C(C)=O)C2
ClpP1P2: -2.126
Pks13 thioesterase: -46.76

Compound: Cn1cnc2c1C(C(=O)N1CCCC1)N(S(C)(=O)=O)CC2 (stereo not given)
ClpP1P2: -6.287
Pks13 thioesterase: -21.55

Compound: Cc1nnc(CN2CCC(Oc3ccc(C)c(C)c3)CC2)o1
ClpP1P2: -4.672
Pks13 thioesterase: -27.01

Compound: Cc1cc(C)n(CC2CCCN2CCS(C)(=O)=O)n1 (stereo not given)
ClpP1P2: -24.1
Pks13 thioesterase: -4.517

Compound: Cc1ccccc1S(=O)(=O)NC(=O)CSc1ccc2c(c1)OCCO2
ClpP1P2: 2.026
Pks13 thioesterase: 1.143

Compound: CCOc1cccc2c1OCC(=O)N(c1ccc3c(c1)OCCO3)C2
ClpP1P2: -7.562
Pks13 thioesterase: 1.406

Compound: COCCN1CCOCC2(CCN(c3cnccn3)CC2)C1
ClpP1P2: 2.405
Pks13 thioesterase: 19.22

Compound: CC(=O)N1CCC(NC(=O)Cc2csc(C(C)(C)C)n2)CC1
ClpP1P2: 0.8493

Compound: Cc1cc(C)c(C(=O)N2CCOC(c3cccs3)C2)c(=O)[nH]1 (stereo not given)
ClpP1P2: 2.596
Pks13 thioesterase: -0.5452

Compound: O=c1c2cc3c(cc2nnn1Cc1ccccc1Cl)OCCO3
ClpP1P2: -16.03
Pks13 thioesterase: -3.281

Compound: Cc1nc2c(c(NCC(O)c3ccccc3Cl)n1)CCNCC2 (stereo not given)
ClpP1P2: 9.66
Pks13 thioesterase: -19.61

Compound: CCC(=O)N1CCCC1C(=O)N1CCC(Cc2ccc(F)cc2)CC1 (stereo not given)
ClpP1P2: 7.521
Pks13 thioesterase: 1.127

Compound: c1ccc(C[C@H]2CN(C3CCOCC3)CC[C@H]2OCC2CC2)cc1
ClpP1P2: -24.28
Pks13 thioesterase: -27.78

Compound: CN(Cc1ccco1)C1CCC12CCN(C(=O)c1ccnnc1)CC2 (stereo not given)
ClpP1P2: -5.239
Pks13 thioesterase: -18.67

Compound: CN(Cc1nccs1)c1nc(-c2ccccn2)nc2c1CCNCC2
ClpP1P2: -7.847
Pks13 thioesterase: -22.76

Compound: CC(C)(C)c1cc(CN2CCOC(CN)C2)n[nH]1 (stereo not given)
ClpP1P2: 14.69
Pks13 thioesterase: -28.03

Compound: CSc1ncccc1C(=O)NCCC(O)c1cccs1 (stereo not given)
ClpP1P2: -0.836
Pks13 thioesterase: -25.56

Compound: Cc1ccc(CCNC(=O)Nc2cc(C(F)(F)F)c[nH]c2=O)o1
ClpP1P2: -24.47
Pks13 thioesterase: -22.4

Compound: Cc1nccn1CCC1CCCCN1Cc1ccc(N(C)C)nc1 (stereo not given)
ClpP1P2: -8.422
Pks13 thioesterase: -7.076

Compound: Cn1c(=O)[nH]c(=O)n2c(CC(=O)Nc3ccccc3)cnc12
ClpP1P2: -9.108
Pks13 thioesterase: -5.124

Compound: CN1CCC(C)(CN(C)Cc2ccc(CCC(C)(C)O)cc2)C1 (stereo not given)
ClpP1P2: -2.485
Pks13 thioesterase: -25.68

Compound: Cn1ccnc1CN(CCCO)CC(F)(F)F
ClpP1P2: 8.141
Pks13 thioesterase: 14.69

Compound: Cc1cc(C)c(CNC(=O)N2CCN(c3ncccn3)CC2)c(=O)[nH]1
ClpP1P2: 3.047
Pks13 thioesterase: -13.19

Compound: COc1cc2c(cc1OC)S(=O)(=O)N(Cc1cc(C)on1)C2=O
ClpP1P2: -10.01
Pks13 thioesterase: -3.449

Compound: CCCc1cc(NCCC2CCCOC2)n2nccc2n1 (stereo not given)
ClpP1P2: 0.7827
Pks13 thioesterase: 9.776

Compound: O=S(=O)(NCCCN1CCCC1)c1cc(F)cc(F)c1
ClpP1P2: 16.45
Pks13 thioesterase: -28.15

Compound: Cc1nccc(CN2Cc3nccn3CC2c2ccccc2)n1 (stereo not given)
ClpP1P2: -14.39

Compound: CCOC(=O)C1(Cc2cccc(OC)c2)CCN(Cc2ccon2)CC1
ClpP1P2: -35.58
Pks13 thioesterase: -4.285

Compound: CCOC(=O)[C@H]1CNC[C@@H]1C(F)(F)F
ClpP1P2: -4.313
Pks13 thioesterase: -5.234

Compound: CC(CO)CN(Cc1ccccc1)Cc1cnc2ccccc2n1 (stereo not given)
ClpP1P2: -14.91
Pks13 thioesterase: -0.4439

Compound: CC1=N[C@@]2(CC[C@@H]3CN(CC(C)C)C[C@@H]32)C(=O)N1C
ClpP1P2: -0.4016
Pks13 thioesterase: -21.14

Compound: O=C(C1CCCC1)N1CCC(c2n[nH]c3nccnc23)CC1
ClpP1P2: -7.341
Pks13 thioesterase: 3.291

Compound: CCN1CC2(CC1=O)CN(Cc1ccsc1)CCN(C(=O)C(C)C)C2 (stereo not given)
ClpP1P2: -11.21
Pks13 thioesterase: 23.42

Compound: CCOCCSc1nnc(Cc2ccccc2F)o1
ClpP1P2: -9.108
Pks13 thioesterase: -15.48

Compound: CCc1c(C(=O)O)nnn1-c1cc(C)cc(C)c1
ClpP1P2: -3.235
Pks13 thioesterase: -1.375

Compound: c1nc2c(c(N3CCOCC3)n1)CCNCC2
ClpP1P2: -4.626
Pks13 thioesterase: -1.521

Compound: COc1ccc(CN2C[C@@H](N(C)Cc3ccco3)[C@H]3OCCC[C@H]32)cc1
ClpP1P2: 8.117
Pks13 thioesterase: -14.63

For reference, 3 entries once more:

{"compound": "COc1cc2c(cc1OC)S(=O)(=O)N(Cc1cc(C)on1)C2=O", "ClpP1P2": -10.01, "Pks13 thioesterase": -3.449}
{"compound": "CCOc1cccc2c1OCC(=O)N(c1ccc3c(c1)OCCO3)C2", "ClpP1P2": -7.562, "Pks13 thioesterase": 1.406}
{"compound": "CCN1CC2(CC1=O)CN(Cc1ccsc1)CCN(C(=O)C(C)C)C2", "stereo": "stereo not given", "ClpP1P2": -11.21, "Pks13 thioesterase": 23.42}